According to paper PMC12448893:
These are yes or no findings as the source states them, for the method shown. In cells and extracts the contact can be indirect. These calls come from enrichment with a bait or labelling near it, and not all partners need be listed.

Amino acid sequences for entries named in this document (tags omitted). A change or cut given only in a name is not applied to a line headed by its entry.
UniProt Q13547: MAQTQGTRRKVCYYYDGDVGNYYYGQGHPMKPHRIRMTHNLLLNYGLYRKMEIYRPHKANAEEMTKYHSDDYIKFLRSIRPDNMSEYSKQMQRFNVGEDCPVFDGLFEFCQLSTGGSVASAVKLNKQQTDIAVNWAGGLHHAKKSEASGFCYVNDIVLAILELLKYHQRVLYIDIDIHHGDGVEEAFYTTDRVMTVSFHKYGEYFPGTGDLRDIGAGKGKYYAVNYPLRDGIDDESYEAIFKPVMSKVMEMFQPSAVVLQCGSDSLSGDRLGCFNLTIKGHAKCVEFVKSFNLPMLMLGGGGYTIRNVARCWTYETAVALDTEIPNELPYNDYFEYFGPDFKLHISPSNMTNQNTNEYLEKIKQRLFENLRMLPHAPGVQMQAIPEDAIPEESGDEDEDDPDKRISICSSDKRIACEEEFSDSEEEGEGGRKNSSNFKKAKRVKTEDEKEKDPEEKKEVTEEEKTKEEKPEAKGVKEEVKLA

Assays:
Assay in all cases: affinity purification with mass spectrometry; Flag IP (anti-Flag on Protein G Dynabeads) of HDAC1-Flag WT, Y48E or E63R from extracts of Hdac1/2 DKO mouse ESCs 5 days after OHT; coIP buffer 250 mM NaCl, 20 mM Tris-HCl pH 7.5, 0.5% IGEPAL, 1 mM EDTA; 4°C overnight; LC-MS/MS; control DKO cells lacking a Flag epitope
[1] = target: HDAC1–Y48E (Flag), stably expressed in Hdac1/2 double knockout mouse ESCs (UniProt Q13547)
[2] = target: HDAC1–E63R (Flag), stably expressed in Hdac1/2 double knockout mouse ESCs (UniProt Q13547)
[3] = target: HDAC1-Flag (wild type), stably expressed in Hdac1/2 double knockout mouse ESCs (UniProt Q13547)

Measured: binding

B1: SIN3B (endogenous, mouse ESCs) (protein, UniProt Q62141 1-1098)
chain: MAHAGSGGSAGRGFGGSRWGRSGSGGHEKLPVHVEDALTYLDQVKIRFGSDPATYNGFLEIMKEFKSQSIDTPGVIRRVSQLFHEHPDLIVGFNAFLPLGYRIDIPKNGKLNIQSPLSSQDNSHSHGDCGEDFKQMSYKEDRGQVPLESDSVEFNNAISYVNKIKTRFLDHPEIYRSFLEILHTYQKEQLHTKGRPFRGMSEEEVFTEVANLFRGQEDLLSEFGQFLPEAKRSLFTGNGSCEMNSGQKNEEKSLEHNKKRSRPSLLRPVSAPAKKKMKLRGTKDLSIAAVGKYGTLQEFSFFDKVRRVLKSQEVYENFLRCIALFNQELVSGSELLQLVSPFLGKFPELFAQFKSFLGVKELSFAPPMSDRSGDGISREIDYASCKRIGSSYRALPKTYQQPKCSGRTAICKEVLNDTWVSFPSWSEDSTFVSSKKTPYEEQLHRCEDERFELDVVLETNLATIRVLESVQKKLSRMAPEDQEKLRLDDCLGGTSEVIQRRAIHRIYGDKAPEVIESLKRNPATAVPVVLKRLKAKEEEWREAQQGFNKIWREQYEKAYLKSLDHQAVNFKQNDTKALRSKSLLNEIESVYDEHQEQHSEGRSAPSSEPHLIFVYEDRQILEDAAALISYYVKRQPAIQKEDQGTIRQLLHRFLPSLFFSQQCPGTSDDSADERDRDRDSAEPERRRPTDEKPPADASPEPPKVLDDVYSLFFANNNWYFFLRLHQTLCARLLKIYRQAQKQLLEHRREQEREQLLCEGRREKAADPAMELRLKQPSEVELEEYYPAFLDMVRSLLEGSIDPTQYEDTLREMFTIHAYIGFTMDKLVQNIARQLHHLVSDDVCLKVVELYLNEQQRGAAGGNLSSRCVRAARETSYQWKAERCMADENCFKVMFLQRRGQVIMTIELLDTEEAQTEDPVEVQHLARYVEQYVGSEGASSSSTEGFLLKPVFLQRNLKKFRRWQCEQVRAMRGEAKSSWKRLMGVESACDVDCRFRLGTHKMVFIVNSEDYMYRRGTLCRAKQVQPLVLLRHHRHFEEWHGRWLEDNVTVAAAGLVQDWLMGEEEEDMVPCKTLCETAHVHGLPVTRYRVQYSRRPASP
binds: all assays above
